Results deposited as PubChem BioAssay AID1259308 (NCATS, 2017)
Purpose: 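Genes whose loss raises luciferase production in HEK293 cells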 (primary screen). Cell system: human HEK293 embryonic kidney cells stably expressing firefly luciferase (HEK-CMV-Luc2-Hygro). Knock-down reagent: single siRNA against human genes, 0.8 pmol siRNA per well. Timing: 72 h. Detection: 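Luciferase light (ONE-Glo) measured on one replicate plate set and viability (CellTiter-Glo) on the other, scaled to a negative control siRNA, with robust z-scores and luciferase per cell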. Reading the numbers: total luciferase, z-score and total luciferase, % of control: higher = more reporter protein produced; luciferase per cell, z-score: higher = more reporter output per viable cell; viable cells, % of control: higher = more viable cells. Call rule: 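An siRNA counts as active if its total luciferase robust z-score exceeds 3; genes with two or more such siRNAs out of three were retested with fresh siRNAs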. Meaning of the calls: active = raised luciferase; inactive = no rise.
The whole screen tested about 59,000 reagents; shown is a random part of them. About 1,510 of all reagents (2.6%) were called active. 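Calls use total luciferase alone and ignore viability, so some active siRNAs may act by altering cell number.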 Entries without a mark were called inactive. The numbers tell different reagents against one gene apart.

| gene | reagent no. | total luciferase, z-score | total luciferase, % of control | luciferase per cell, z-score | viable cells, % of control |
| --- | --- | --- | --- | --- | --- |
| FAM25EP | 1 | 0.362 | 89.1 | 0.526 | 86.7 |
| FAM25EP | 2 | -1.16 | 58.8 | -1.53 | 98.3 |
| FAM25EP | 3 | 1.05 | 103 | 0.00964 | 114 |
| NFKB1 | 1 | 1.71 | 116 | 1.25 | 93.1 |
| NFKB1 | 2 | -0.918 | 63.6 | -0.734 | 86.3 |
| NFKB1 | 3 | 1.21 | 106 | 0.697 | 98.5 |
| METTL22 | 1 | -0.184 | 78.2 | -0.0727 | 89.1 |
| METTL22 | 2 | -0.102 | 79.9 | -0.571 | 104 |
| METTL22 | 3 | 0.15 | 84.9 | 0.0651 | 93.2 |
| ACTR6 | 1 | -0.164 | 78.6 | -0.529 | 101 |
| ACTR6 | 2 | 1.08 | 103 | 0.458 | 102 |
| ACTR6 | 3 | -0.553 | 70.9 | -0.456 | 89.3 |
| CYTH3 | 1 | 1.1 | 104 | 1.26 | 83.2 |
| CYTH3 | 2 | 1.23 | 106 | 0.809 | 95.9 |
| CYTH3 | 3 | -0.45 | 72.9 | -0.145 | 84.7 |
| OR2W5 | 1 | -0.672 | 68.5 | 0.224 | 72.2 |
| OR2W5 | 2 | 0.893 | 99.7 | 0.11 | 108 |
| OR2W5 | 3 | -0.522 | 71.5 | 1.44 | 54.7 |
| GNAT1 | 1 | -0.727 | 67.4 | 0.686 | 62.9 |
| GNAT1 | 2 | 1.01 | 102 | 0.91 | 89.8 |
| GNAT1 | 3 | -0.00207 | 81.8 | -0.293 | 98.8 |
| ARHGAP26 | 1 | -0.342 | 75.1 | -0.758 | 102 |
| ARHGAP26 | 2 | -0.0691 | 80.5 | -0.567 | 104 |
| ARHGAP26 | 3 | 0.696 | 95.7 | 0.127 | 103 |
| MESP1 | 1 | -0.922 | 63.5 | -1.07 | 94 |
| MESP1 | 2 | -0.415 | 73.6 | -0.57 | 95.6 |
| MESP1 | 3 | -0.942 | 63.2 | -1.53 | 105 |
| PTGR2 | 1 | 0.304 | 87.9 | -0.546 | 113 |
| PTGR2 | 2 | -0.293 | 76.1 | -0.396 | 94.4 |
| PTGR2 | 3 | -0.0736 | 80.4 | -0.953 | 116 |
| C1GALT1C1 | 1 | -0.18 | 78.3 | -0.299 | 94.7 |
| C1GALT1C1 | 2 | -0.0573 | 80.7 | -0.513 | 103 |
| C1GALT1C1 | 3 | 0.0166 | 82.2 | 0.597 | 78.5 |

Targets above whose gene name starts with O or o:
| gene | reagent no. | total luciferase, z-score | total luciferase, % of control | luciferase per cell, z-score | viable cells, % of control |
| --- | --- | --- | --- | --- | --- |
| OR2W5 | 1 | -0.672 | 68.5 | 0.224 | 72.2 |
| OR2W5 | 2 | 0.893 | 99.7 | 0.11 | 108 |
| OR2W5 | 3 | -0.522 | 71.5 | 1.44 | 54.7 |

Next entries follow:
| gene | reagent no. | total luciferase, z-score | total luciferase, % of control | luciferase per cell, z-score | viable cells, % of control |
| --- | --- | --- | --- | --- | --- |
| CYSTM1 | 1 | -0.714 | 67.7 | -0.642 | 89.6 |
| CYSTM1 | 2 | 0.528 | 92.4 | 0.00621 | 103 |
| CYSTM1 | 3 | 0.231 | 86.5 | -0.252 | 103 |
| TRAM2 | 1 | -1.66 | 48.9 | -1.41 | 79.2 |
| TRAM2 | 2 | 0.809 | 98 | 2.68 | 54.1 |
| TRAM2 | 3 | -1.74 | 47.2 | -0.845 | 65.9 |
| TNR | 1 | 1.82 | 118 | 2.27 | 72.5 |
| TNR | 2 | 0.265 | 87.2 | 0.163 | 93.3 |
| TNR | 3 | -1.45 | 53 | -1.79 | 94.8 |
| LINC02523 | 1 | 1.26 | 107 | 0.65 | 101 |
| LINC02523 | 2 | 0.422 | 90.3 | 0.402 | 90.7 |
| LINC02523 | 3 | 0.0658 | 83.2 | -0.302 | 101 |
| SEPTIN1 | 1 | 2.94 | 140 | 1.36 | 110 |
| SEPTIN1 | 2 | -1.79 | 46.2 | -1.43 | 75.3 |
| SEPTIN1 | 3 | 0.764 | 97.1 | -0.111 | 112 |
| ZNF724 | 1 | -0.79 | 66.2 | -1 | 96.3 |
| ZNF724 | 2 | -0.205 | 77.8 | 0.478 | 76.7 |
| ZNF724 | 3 | -0.46 | 72.7 | -0.583 | 94.8 |
| GJD3 | 1 | -0.49 | 72.1 | -0.0317 | 81.3 |
| GJD3 | 2 | 0.665 | 95.1 | 0.359 | 96.7 |
| GJD3 | 3 | -0.7 | 68 | -0.681 | 90.8 |
| KLC1 | 1 | 2.23 | 126 | 1.33 | 99.5 |
| KLC1 | 2 | -0.823 | 65.5 | -0.659 | 87.1 |
| KLC1 | 3 | -0.393 | 74.1 | -0.978 | 107 |
